# Assay results published in the supplement of paper PMC10338343.
# ± gives the standard deviation. The list shows a part of the results, in another mix than the full data. The uncertainty is large for many entries.
# Tested on: MIWI (PIWIL1) piRISC loaded with piRNA #1 (30 nt)
# Assay: pre-steady-state target cleavage rate (min^-1); MIWI and MILI are mouse PIWI proteins and EfPiwi is from a freshwater sponge; tags in brackets are library labels; higher = faster piRNA-guided slicing of the target
# Conditions: guide: piRNA #1 5'p-UGAGGUAGUAGGUUGUAUAGUAUCCAGAGG; auxiliary factor: 500 nM mouse GTSF1
# Summary of the method: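 Cleave-'n-Seq: a transcribed, DNA-blocked target RNA library (0.1 nM) was mixed with 1 nM active affinity-purified piRISC carrying one synthetic guide, with or without 500 nM GTSF1 partner protein, in HEPES–potassium acetate buffer at 33 °C for 0–8 or 0–960 min. Uncleaved targets were sequenced and normalised to depth and to weakly complementary targets. Three trials were pooled, and k3 was capped at 0.0001 min^-1. The pre-steady-state cleavage rate came from a burst-and-steady-state fit.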
row,Sequence,pre-steady-state target cleavage rate
1,GGAGACCUAUGAUUACAACGUACUUCCUCA,0.000818 ± 0.0074
2,GGAGACCUAUGAAUACAACCUACUAUCCUCA,0.002 ± 0.0027
3,GGAGACCUAUGAUAACAACCUACUGCCUCA,0.000456 ± 0.013
4,GGAGAGGAUACUAUACAACCUCUACCUCA,0.00193 ± 0.0039
5,GGAGACCUAUGAUAUGUUGCUACUAUCCUCA,0.000725 ± 0.01
6,GGAGACCUAUGAAUACAACCUACUACCUCA [g2:g18:cont:t1A],0.00233 ± 0.0046
7,GGAGACCUAUGUAUACAACCUAUCUACCUCA,0.00105 ± 0.006
8,GGAGACCUAUGAAUACAACGUACUUCCUCA,0.000225 ± 0.01
9,GGAGACCUAUGAAUACAACCAUCUACCUCA,0.00081 ± 0.0052
10,GGAGACCUAUGAUAACAACCUACGACCUCA,0.000263 ± 0.0085
11,GGAGACCUAUGAUAUGUUGGUUACUACCUCA,0.00103 ± 0.0046
12,GGAGACCUAUGAUUACAACCUACUCCCUCA,0.000863 ± 0.0061
13,GGAGACCUAUGAUUACAAGCUACUACCUCA,0.00213 ± 0.0044

# 2 records drawn at random from those above, as already listed:
row,Sequence,pre-steady-state target cleavage rate
9,GGAGACCUAUGAAUACAACCAUCUACCUCA,0.00081 ± 0.0052
10,GGAGACCUAUGAUAACAACCUACGACCUCA,0.000263 ± 0.0085
